Results are given in words; binding and its absence hold for the method and conditions named. Some binding calls cover weakened binding; strength is not graded here.
Columns and labels:
[1] = target: GPIb on human platelets (human) (UniProt P07359); experiment: PC-coated 10 um polystyrene beads perfused over immobilized platelets in a parallel-plate flow chamber, shear rate 150 s^-1, 5 min, images
[2] = target: GPIb on human platelets (human) (UniProt P07359); experiment: platelet adhesion to immobilized ligand under flow, reconstituted blood at shear rate 300 s^-1 for 3 min, DIC images; GPIb dependence shown with anti-GPIb mAb 6D1 (10 ug/ml)
[3] = target: GPIb on human platelets (human) (UniProt P07359); experiment: PC-coated 10 um polystyrene beads perfused over immobilized platelets in a parallel-plate flow chamber, shear rate 150 s^-1, 5 min, adherent beads counted; with or without anti-GPIb mAb 6D1
[4] = target: T1, integrin αIIbβ3 on human platelets (human) (UniProt P08514+P05106); experiment: static adhesion of purified human platelets to immobilized ligand, 45 min at 37 C, DIC images; alphaIIbbeta3 dependence shown with anti-alphaIIbbeta3 (eptifibatide)
[5] = target: T1, integrin αIIbβ3 on human platelets (human); experiment: platelet adhesion to immobilized ligand under flow, reconstituted blood at shear rate 300 s^-1 for 3 min, DIC images; alphaIIbbeta3 dependence shown with eptifibatide (20 ug/ml)

Chains of the proteins cited; added tags and fusions are not shown. Lines headed by an entry give the natural chain unless they say otherwise; changes in a name come on top. Residues count along the entry.
UniProt P07359, residues 17-652: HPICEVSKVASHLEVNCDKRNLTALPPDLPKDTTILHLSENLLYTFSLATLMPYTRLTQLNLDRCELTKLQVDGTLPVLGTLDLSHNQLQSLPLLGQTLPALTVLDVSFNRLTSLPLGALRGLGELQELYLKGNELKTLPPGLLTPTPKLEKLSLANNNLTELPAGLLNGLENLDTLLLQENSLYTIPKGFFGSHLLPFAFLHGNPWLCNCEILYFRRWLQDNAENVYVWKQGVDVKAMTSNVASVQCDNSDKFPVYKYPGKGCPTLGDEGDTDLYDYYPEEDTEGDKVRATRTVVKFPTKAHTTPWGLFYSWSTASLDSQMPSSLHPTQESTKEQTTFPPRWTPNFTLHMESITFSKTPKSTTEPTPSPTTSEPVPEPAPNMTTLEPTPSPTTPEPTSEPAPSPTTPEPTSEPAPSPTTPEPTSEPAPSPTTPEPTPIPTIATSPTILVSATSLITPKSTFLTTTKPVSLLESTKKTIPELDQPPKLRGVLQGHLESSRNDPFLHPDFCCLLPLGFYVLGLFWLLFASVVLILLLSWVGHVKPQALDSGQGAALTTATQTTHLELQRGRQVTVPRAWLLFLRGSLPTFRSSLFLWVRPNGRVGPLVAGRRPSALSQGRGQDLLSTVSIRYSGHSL
UniProt P08514: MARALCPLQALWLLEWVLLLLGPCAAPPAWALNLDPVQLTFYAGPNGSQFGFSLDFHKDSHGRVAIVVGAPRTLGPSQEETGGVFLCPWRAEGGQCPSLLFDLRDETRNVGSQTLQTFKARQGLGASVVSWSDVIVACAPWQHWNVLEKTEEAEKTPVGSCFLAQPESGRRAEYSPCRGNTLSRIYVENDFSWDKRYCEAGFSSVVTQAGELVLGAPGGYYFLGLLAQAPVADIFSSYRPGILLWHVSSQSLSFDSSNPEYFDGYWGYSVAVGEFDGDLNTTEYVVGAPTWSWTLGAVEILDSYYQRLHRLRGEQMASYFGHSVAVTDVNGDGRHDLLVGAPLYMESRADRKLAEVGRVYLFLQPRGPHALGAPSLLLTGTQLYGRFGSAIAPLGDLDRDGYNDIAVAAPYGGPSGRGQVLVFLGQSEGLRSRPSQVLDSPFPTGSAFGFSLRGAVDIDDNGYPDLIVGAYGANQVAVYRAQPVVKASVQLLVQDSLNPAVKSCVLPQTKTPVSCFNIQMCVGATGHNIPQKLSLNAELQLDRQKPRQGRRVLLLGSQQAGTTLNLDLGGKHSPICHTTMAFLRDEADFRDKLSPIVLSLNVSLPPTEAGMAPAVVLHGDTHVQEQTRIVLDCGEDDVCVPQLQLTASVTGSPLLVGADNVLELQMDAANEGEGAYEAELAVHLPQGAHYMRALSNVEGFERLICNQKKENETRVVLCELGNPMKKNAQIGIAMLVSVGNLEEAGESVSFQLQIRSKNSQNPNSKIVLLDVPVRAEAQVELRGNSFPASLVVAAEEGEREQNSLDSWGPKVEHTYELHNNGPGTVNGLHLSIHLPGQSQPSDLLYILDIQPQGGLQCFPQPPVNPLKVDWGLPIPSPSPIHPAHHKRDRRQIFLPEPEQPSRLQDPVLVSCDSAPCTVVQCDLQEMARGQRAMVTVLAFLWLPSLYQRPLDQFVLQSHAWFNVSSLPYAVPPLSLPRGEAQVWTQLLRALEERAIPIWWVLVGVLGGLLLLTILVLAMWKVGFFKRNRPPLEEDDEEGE
UniProt P05106: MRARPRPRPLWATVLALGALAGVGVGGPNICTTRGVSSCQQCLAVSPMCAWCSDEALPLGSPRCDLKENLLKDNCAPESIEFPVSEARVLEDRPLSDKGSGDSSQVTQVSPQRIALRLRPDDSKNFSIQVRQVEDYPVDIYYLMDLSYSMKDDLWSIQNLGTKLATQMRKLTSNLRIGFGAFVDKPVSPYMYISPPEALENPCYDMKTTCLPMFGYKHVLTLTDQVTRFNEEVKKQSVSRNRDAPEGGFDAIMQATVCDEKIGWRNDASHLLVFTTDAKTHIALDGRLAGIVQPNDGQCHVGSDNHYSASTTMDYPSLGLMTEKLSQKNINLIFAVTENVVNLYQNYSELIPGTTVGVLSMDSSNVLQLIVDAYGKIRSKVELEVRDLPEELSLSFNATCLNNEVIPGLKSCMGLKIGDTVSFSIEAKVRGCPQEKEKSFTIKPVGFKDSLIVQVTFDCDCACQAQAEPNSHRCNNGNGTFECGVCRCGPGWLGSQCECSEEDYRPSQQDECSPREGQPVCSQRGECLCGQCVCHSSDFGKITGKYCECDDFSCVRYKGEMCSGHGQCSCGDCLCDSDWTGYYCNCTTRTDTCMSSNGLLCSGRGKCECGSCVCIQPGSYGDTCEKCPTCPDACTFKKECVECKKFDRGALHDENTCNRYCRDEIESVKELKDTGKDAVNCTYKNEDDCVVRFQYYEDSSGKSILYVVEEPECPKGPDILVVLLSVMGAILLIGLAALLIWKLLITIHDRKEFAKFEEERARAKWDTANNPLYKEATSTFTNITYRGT
UniProt P04070, residues 43-461: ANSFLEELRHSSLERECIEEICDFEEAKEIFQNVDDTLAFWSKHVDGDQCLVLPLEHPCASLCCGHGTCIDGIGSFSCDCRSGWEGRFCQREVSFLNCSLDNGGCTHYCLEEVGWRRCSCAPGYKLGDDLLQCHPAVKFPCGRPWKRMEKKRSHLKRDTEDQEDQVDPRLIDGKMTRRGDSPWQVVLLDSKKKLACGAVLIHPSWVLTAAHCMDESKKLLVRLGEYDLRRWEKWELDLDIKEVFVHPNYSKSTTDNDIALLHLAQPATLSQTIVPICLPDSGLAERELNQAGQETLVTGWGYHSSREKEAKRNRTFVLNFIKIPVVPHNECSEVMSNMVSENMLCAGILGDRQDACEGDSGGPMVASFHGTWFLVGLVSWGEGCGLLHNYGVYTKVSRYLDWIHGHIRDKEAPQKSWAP
UniProt P02671: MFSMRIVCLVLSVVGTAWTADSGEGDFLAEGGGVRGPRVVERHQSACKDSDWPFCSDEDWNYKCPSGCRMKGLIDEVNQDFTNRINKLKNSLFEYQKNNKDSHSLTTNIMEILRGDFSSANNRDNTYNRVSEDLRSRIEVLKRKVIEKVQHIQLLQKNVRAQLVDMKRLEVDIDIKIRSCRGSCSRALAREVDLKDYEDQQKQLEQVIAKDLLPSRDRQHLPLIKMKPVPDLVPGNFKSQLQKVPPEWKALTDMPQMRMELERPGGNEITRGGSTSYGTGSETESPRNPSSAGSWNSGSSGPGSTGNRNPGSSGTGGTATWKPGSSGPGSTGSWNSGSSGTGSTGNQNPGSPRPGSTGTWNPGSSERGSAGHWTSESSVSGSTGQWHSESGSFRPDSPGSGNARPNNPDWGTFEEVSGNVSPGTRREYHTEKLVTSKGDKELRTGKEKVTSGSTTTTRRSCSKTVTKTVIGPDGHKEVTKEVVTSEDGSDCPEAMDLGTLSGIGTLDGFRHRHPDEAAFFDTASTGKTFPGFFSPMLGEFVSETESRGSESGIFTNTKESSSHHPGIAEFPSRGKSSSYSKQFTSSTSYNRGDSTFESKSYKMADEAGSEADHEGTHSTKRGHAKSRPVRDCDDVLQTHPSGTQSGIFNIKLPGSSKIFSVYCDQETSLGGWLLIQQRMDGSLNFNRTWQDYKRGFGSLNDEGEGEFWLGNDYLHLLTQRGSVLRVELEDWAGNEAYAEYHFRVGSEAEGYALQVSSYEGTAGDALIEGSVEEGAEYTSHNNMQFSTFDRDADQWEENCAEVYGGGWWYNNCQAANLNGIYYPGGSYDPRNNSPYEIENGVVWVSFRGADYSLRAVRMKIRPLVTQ

| binding [1] | binding [2] | binding [3] | binding [4] | binding [5] | Substance |
| --- | --- | --- | --- | --- | --- |
| binds | binds | binds |  |  | Protein C (PC), human plasma-derived zymogen (from UniProt P04070 43-461) (enzyme) |
|  |  |  | binds | binds | fibrinogen (from UniProt P02671 20-629; P02675 31-491; P02679 27-437) (ligand) |
